The record followed here is paper PMC6479402, “Anti-Herpetic, Anti-Dengue and Antineoplastic Activities of Simple and Heterocycle-Fused Derivatives of Terpenyl-1,4-Naphthoquinone and 1,4-Anthraquinone” (Molecules, 2019).

One data set concerns Jurkat. Description: MTT cytotoxicity assay. It counts as cell-based, human. The settings on record: Jurkat vs Vero; 48 h. As for the experimental part:
(§1) Then, each diluted molecule was added to the cells and incubated for further 48 h at 37 °C, 5% CO2. […] The DMSO was then added to dissolve the formed formazan crystals and absorbance was determined spectrophotometrically at 570 nm. […] IC50 values were expressed as the mean ± standard deviation (M ± SD) of two independent experiments done in quadruplicate.
In general terms: Tetrazolium assays rely on reduction of a dye to a coloured formazan, in cell work by metabolically active cells.

In the next data set the test system is HeLa. Description: MTT cytotoxicity assay. In kind it is cell-based, human. The settings on record: HeLa vs Vero; 48 h. As for the experimental part: as §1

As to `COc1cccc2c1C(=O)c1c(O)c3c(c(O)c1C2=O)C[C@@](O)(C(=O)CO)C[C@@H]3O[C@H]1C[C@H](N)[C@H](O)[C@H](C)O1` [Doxorubicin, doxorubicin, reference compound], the “SI (IC50 Vero/IC50 Jurkat)” value in the data set on Jurkat is on record as 22. In the data set on HeLa, the “SI (IC50 Vero/IC50 HeLa)” value was found to be 2.2.
For `CC(C)CCCc1ccc2c(c1)C(=O)C(Cl)=C(Cl)C2=O` [NQ 4] the same measures were 18 and 14.
